The target of assay [1] is T1, mouse FcγRIIIA (immobilized on CM4 chip) (mouse, UniProt P08508 31-215).
T1 construct: also called mouse FcγR3A
T1 sequence (looked up): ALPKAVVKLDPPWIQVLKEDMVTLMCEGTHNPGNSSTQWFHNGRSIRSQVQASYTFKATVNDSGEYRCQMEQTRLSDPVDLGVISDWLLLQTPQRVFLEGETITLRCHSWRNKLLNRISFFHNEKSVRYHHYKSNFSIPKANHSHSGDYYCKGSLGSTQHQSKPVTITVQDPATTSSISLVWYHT
Briefly: SPR (Biacore), receptor amine-coupled to a CM4 chip, analyte 500 nM to 1.9 nM; panel 'Mse FcR3A'. Here is the method: (§1) FcγRIIIA, FcγRIIB and SIGN-R1 receptors were immobilized to a CM4 chip using amine immobilization to 560, 500, and 1000RU, respectively to compensate for protein size.
(§2) Regeneration was achieved by a 10 sec injection of 1M MgCl at 100 ul/min, followed by a brief wash with running buffer. KDs were calculated using T100 evaluation software.
(In general: SPR reads the build-up and loss of mass on a sensor chip optically.)

Assay [2] has as its target T2, mouse FcγRIIB (immobilized on CM4 chip) (mouse, UniProt P08101 30-207, limits assumed).
T2 construct: also called mouse FcγR2b
T2 sequence (looked up): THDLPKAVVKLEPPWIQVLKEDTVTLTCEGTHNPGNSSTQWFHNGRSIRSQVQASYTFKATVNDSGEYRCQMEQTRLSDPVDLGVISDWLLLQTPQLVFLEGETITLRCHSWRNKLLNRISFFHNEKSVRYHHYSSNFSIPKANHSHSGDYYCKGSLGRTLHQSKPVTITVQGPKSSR
The assay is described as follows: SPR (Biacore), receptor amine-coupled to a CM4 chip, analyte 500 nM to 1.9 nM; panel 'Mse FcR2B'. Here is the method: as §1, §2

Assay [3] has as its target T3, mouse SIGN-R1 (immobilized on CM4 chip) (mouse, UniProt Q8CJ91 74-325, limits assumed).
T3 sequence (looked up): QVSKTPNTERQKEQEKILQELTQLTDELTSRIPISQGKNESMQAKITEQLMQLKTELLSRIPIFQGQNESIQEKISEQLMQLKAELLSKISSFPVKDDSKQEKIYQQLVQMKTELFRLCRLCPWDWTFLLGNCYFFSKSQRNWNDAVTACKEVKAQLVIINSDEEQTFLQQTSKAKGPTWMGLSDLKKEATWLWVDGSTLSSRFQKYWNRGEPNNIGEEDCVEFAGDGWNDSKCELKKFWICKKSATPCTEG
The assay is described as follows: SPR (Biacore) as in Example 4, SIGN-R1 on the chip. Here is the method:
as §1, §2
M045F was first gel fractionated using an AktaXpress protein purification system and a GE HiLoad 16/60 Superdex 200 prep grade column.

B1: M046 stradomer (Fc fusion)
chain: DEPRGPTIKPCPPCKCPAPNLLGGPSVFIFPPKIKDVLMISLSPIVTCVVVDVSEDDPDVQISWFVNNVEVHTAQTQTHREDYNSTLRVVSALPIQHQDWMSGKEFKCKVNNKDLPAPIERTISKPKGSVRAPQVYVLPPPEEEMTKKQVTLTCMVTDFMPEDIYVEWTNNGKTELNYKNTEPVLDSDGSYFMYSKLRVEKKNWVERNSYSCSVVHEGLHNHHTTKSFSRTPGKGGGSIKQIEDKIEEILSKIYHIENEIARIKKLIGERG
notes: Murine counterpart of G046 (Fc with C-terminal isoleucine zipper); The entry may include a leader
Consider B1, for which the Kd in assay [1] was 33.4 nM; in assay [2], 47.9 nM; in assay [3], 74.1 nM.

What is called Kd is a measure of binding affinity in units of concentration. Higher therefore signals lower affinity.

The values above are taken from patent US20220056087A1 (GLIKNIK, published 2022).
